We go through 2 molecules from article PMC12224998.

Sequences of proteins named here, by UniProt entry; tags and fusion partners are left off. A change or cut given only in a name is not applied to a line headed by its entry. Residues count along the entry.
UniProt P15941, residues 24-1255: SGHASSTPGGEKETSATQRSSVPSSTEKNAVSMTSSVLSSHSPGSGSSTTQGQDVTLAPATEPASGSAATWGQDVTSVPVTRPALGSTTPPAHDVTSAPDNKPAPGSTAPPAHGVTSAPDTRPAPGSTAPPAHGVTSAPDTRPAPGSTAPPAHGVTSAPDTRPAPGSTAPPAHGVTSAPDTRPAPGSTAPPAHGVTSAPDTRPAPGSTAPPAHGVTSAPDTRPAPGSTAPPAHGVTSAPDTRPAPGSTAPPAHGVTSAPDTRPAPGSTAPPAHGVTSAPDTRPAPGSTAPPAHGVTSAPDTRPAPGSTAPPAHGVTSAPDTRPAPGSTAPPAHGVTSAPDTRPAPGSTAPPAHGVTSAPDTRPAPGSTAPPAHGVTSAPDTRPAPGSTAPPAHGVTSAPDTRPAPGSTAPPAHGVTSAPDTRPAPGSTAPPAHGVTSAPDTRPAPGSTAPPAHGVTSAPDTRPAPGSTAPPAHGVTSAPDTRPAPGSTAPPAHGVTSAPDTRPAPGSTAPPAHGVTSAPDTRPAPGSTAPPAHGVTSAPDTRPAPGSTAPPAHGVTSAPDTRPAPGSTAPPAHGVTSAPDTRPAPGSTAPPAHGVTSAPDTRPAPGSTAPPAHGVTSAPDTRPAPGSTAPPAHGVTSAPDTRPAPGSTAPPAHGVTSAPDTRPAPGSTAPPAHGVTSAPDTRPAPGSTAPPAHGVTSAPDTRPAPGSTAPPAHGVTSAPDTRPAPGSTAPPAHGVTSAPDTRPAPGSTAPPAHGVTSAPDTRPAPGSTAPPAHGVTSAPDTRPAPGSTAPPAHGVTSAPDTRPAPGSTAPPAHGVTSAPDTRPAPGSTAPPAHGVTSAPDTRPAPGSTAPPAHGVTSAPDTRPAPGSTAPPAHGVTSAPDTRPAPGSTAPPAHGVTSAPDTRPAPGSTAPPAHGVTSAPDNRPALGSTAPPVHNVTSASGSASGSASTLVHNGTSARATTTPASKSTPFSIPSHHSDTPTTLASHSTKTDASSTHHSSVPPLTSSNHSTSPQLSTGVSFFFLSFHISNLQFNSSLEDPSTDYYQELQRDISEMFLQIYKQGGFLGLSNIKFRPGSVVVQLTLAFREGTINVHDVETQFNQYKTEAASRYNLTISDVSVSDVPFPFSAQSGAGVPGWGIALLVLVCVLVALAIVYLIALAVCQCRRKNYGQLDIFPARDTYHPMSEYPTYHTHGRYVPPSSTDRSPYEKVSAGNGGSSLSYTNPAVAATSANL
UniProt P67775: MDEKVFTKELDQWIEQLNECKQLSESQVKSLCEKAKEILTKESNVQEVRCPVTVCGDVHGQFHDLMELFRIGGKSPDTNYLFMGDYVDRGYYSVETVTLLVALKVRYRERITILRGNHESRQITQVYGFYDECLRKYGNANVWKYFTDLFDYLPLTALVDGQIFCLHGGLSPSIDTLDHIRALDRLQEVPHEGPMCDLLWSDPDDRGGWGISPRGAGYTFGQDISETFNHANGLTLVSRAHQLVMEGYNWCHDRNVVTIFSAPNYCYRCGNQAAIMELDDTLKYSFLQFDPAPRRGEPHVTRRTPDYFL

These are yes or no findings as the source states them, for the method shown. Binding seen in cells or lysates may run through a third protein. Binding calls can cover weak binding; strength is not graded here.

Assay [1] has as its target MUC1 full length with HA tag at the C-terminal (UniProt P15941). The assay is described as follows: co-IP; MUC1-HA-overexpressing HEK293T cells; NETN150 lysis buffer, antibody overnight at 4 °C, protein A/G plus agarose, western blot (Figure S3C). For orientation: Immunoblotting shows a protein as a band on a membrane.
Assay [2] addresses PP2A-Cα (endogenous, NCI-H69) (human (endogenous in NCI-H69)) (UniProt P67775). As to the kind of experiment: co-IP; endogenous proteins, NCI-H69/g-Ctrl and NCI-H69/g-MUC1 cells; IP with anti-PP2A-Cα antibody (Figure 6A) or anti-PKCζ antibody (Figure 6B), western blot.

On to PP2A Cα subunit (from UniProt P67775), for which, in assay [1], the binding result is “binds”.

B1: protein kinase C ζ (PKCζ) (protein, UniProt Q05513 1-592)
chain: MPSRTGPKMEGSGGRVRLKAHYGGDIFITSVDAATTFEELCEEVRDMCRLHQQHPLTLKWVDSEGDPCTVSSQMELEEAFRLARQCRDEGLIIHVFPSTPEQPGLPCPGEDKSIYRRGARRWRKLYRANGHLFQAKRFNRRAYCGQCSERIWGLARQGYRCINCKLLVHKRCHGLVPLTCRKHMDSVMPSQEPPVDDKNEDADLPSEETDGIAYISSSRKHDSIKDDSEDLKPVIDGMDGIKISQGLGLQDFDLIRVIGRGSYAKVLLVRLKKNDQIYAMKVVKKELVHDDEDIDWVQTEKHVFEQASSNPFLVGLHSCFQTTSRLFLVIEYVNGGDLMFHMQRQRKLPEEHARFYAAEICIALNFLHERGIIYRDLKLDNVLLDADGHIKLTDYGMCKEGLGPGDTTSTFCGTPNYIAPEILRGEEYGFSVDWWALGVLMFEMMAGRSPFDIITDNPDMNTEDYLFQVILEKPIRIPRFLSVKASHVLKGFLNKDPKERLGCRPQTGFSDIKSHAFFRSIDWDLLEKKQALPPFQPQITDDYGLDNFDTQFTSEPVQLTPDDEDAIKRIDQSEFEGFEYINPLLLSTEESV
For B1, in assay [2], the binding entry is reported as “binds”.
